Measurements as given in doi:10.1101/2022.10.09.511391.
Results are given in words; binding and its absence hold for the method and conditions named. In cells and extracts the contact can be indirect. A yes stands for co-enrichment or nearness to the bait. Other partners may have been found. Where a sequence is shown, tags or fusion partners need not be part of it.

Biological target: T1, Myc-APEX2-TRB3 (UniProt Q8K4K2)
T1 sequence: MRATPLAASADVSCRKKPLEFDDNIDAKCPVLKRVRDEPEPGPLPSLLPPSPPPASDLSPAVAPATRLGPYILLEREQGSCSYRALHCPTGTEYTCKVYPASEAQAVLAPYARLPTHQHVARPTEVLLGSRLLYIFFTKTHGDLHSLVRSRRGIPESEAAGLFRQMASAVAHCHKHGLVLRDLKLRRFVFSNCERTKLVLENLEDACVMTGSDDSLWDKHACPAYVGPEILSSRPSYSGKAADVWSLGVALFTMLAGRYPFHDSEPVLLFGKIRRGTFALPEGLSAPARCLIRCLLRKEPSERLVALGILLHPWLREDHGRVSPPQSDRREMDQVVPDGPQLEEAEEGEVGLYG
Assay: proximity labelling

B1: Flightless-homolog 1 (Fli1), endogenous in Min6 cells (protein, UniProt Q9JJ28 1-1271)
chain: MEATGVLPFVRGVDLSGNDFKGGYFPENVKAMTSLRWLKLNRTGLCYLPEELAALQKLEHLSVSHNHLTTLHGELSSLPSLRAIVARANSLKNSGVPDDIFKLDDLSVLDLSHNQLTECPRELENAKNMLVLNLSHNGIDSIPNQLFINLTDLLYLDLSENRLESLPPQMRRLVHLQTLVLNGNPLLHAQLRQLPAMMALQTLHLRNTQRTQSNLPTSLEGLSNLSDVDLSCNDLTRVPECLYTLPSLRRLNLSSNQIAELSLCIDQWVHLETLNLSRNQLTSLPSAICKLTKLKKLYLNSNKLDFDGLPSGIGKLTSLEEFMAANNNLELIPESLCRCPKLKKLVLNKNRLVTLPEAIHFLTEIQVLDVRENPSLVMPPKPADRTAEWYNIDFSLQNQLRLAGASPATVAAAAAVGSGSKDPLARKMRLRRRKDSAQDVQAKQVLKGMSDVAQEKNKNQEESIDARAPGGKVRRWDQGLEKPRLDYSEFFTEDVGQLPGLTIWQIENFVPVLVEEAFHGKFYEADCYIVLKTFLDDSGSLNWEIYYWIGGEATLDKKACSAIHAVNLRNYLGAECRTVREEMGDESEEFLQVFDNDISYIEGGTASGFYTVEDTHYVTRMYRVYGKKNIKLEPVPLKGSSLDPRFVFLLDQGLDIYVWRGAQATLSNTTKARLFAEKINKNERKGKAEITLLVQGQEPPGFWDVLGGEPSEIKNHVPDDFWPPQPKLYKVGLGLGYLELPQINYKLSVEHKKRPKVELMPGMRLLQSLLDTRCVYILDCWSDVFIWLGRKSPRLVRAAALKLGQELCGMLHRPRHTVVSRSLEGTEAQVFKAKFKNWDDVLTVDYTRNAEAVLQGQGLSGKVKRDTEKTDQMKADLTALFLPRQPPMPLAEAEQLMEEWNEDLDGMEGFVLEGRKFTRLPEEEFGHFYTQDCYVFLCRYWVPVEYEEEEKTEDKEGKASAEAREGEEAAAEAEEKQPEEDFQCIVYFWQGREASNMGWLTFTFSLQKKFESLFPGKLEVVRMTQQQENPKFLSHFKRKFIIHRGKRKVTQGTLQPTLYQIRTNGSALCTRCIQINTDSSLLNSEFCFILKVPFESEDNQGIVYAWVGRASDPDEAKLAEDILNTMFDASYSKQVINEGEEPENFFWVGIGAQKPYDDDAEYMKHTRLFRCSNEKGYFAVTEKCSDFCQDDLADDDIMLLDNGQEVYMWVGTQTSQVEIKLSLKACQVYIQHTRSKEHERPRRLRLVRKGNEQRAFTRCFHAWSTFRQAPA
binding: binds
